# Data from article PMC2905641.
# No constants are given. Whether binding was seen depends on the method and setting. In cells and extracts the contact can be indirect. Some binding calls cover weakened binding; strength is not graded here.
# T1: RPGR, wild-type mouse retina (mouse (endogenous in mouse retina)) (UniProt Q9R0X5)
# T1 sequence: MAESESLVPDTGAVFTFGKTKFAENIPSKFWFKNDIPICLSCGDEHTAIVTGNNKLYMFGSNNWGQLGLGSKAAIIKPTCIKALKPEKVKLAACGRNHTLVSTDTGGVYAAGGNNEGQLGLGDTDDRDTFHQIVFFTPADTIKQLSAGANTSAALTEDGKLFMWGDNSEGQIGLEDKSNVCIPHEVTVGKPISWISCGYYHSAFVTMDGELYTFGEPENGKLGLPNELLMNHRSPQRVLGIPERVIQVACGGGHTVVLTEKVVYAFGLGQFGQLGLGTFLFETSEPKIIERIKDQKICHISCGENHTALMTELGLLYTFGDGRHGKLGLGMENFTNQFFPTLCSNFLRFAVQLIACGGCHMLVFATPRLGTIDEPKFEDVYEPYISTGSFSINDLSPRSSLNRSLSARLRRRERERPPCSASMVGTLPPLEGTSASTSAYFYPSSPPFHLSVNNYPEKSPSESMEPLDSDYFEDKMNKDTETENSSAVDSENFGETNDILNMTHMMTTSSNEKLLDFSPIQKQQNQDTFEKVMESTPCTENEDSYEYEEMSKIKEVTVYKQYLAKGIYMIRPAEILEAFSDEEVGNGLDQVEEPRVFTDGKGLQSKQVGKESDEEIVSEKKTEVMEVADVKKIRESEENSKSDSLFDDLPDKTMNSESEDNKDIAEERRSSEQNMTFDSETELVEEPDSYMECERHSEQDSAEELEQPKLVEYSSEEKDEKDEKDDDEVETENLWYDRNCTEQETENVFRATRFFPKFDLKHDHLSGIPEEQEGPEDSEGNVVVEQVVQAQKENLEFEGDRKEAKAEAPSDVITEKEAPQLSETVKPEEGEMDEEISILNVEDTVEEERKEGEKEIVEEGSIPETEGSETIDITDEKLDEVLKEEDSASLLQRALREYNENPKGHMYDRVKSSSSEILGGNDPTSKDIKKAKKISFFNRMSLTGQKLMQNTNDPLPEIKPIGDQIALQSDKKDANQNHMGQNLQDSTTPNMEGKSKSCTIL
# B1: NPHP4, mouse retina (protein, UniProt P59240 1-1425)
# chain: MGDWHRAFTQNTLVPPHPQRARQLGKESTAFQCILKWLDGPLIKQGILDMLSELECHLRVTLFDVTYKHFFGRTWKTTVKPTNQPSKQPPRITFNEPLYFHTTLSHPSIVAVVEVVTEGRKRDGTLQLLSCGFGILRIFGNKPESPTSAAQDKRLRLYHGTPRALLHPLLQDPIEQNKFMRLMENCSLQYTLKPHPPLEPAFHLLPENLLVSGFQQIPGLLPPHGDTGDALRKPRFQKPTTWHLDDLFFTLYPSLEKFEEELVQLLISDREGVGLLDSGTLEVLERRLHVCVHNGLGFVQRPQVVVLVPEMDVALTRSASFSRKISASSKNSSGNQALVLRSHLRLPEMVSHPAFAIVFQLEYVFNSPSGADGGASSPTSISSVACMHMVRWAVWNPDLEVGPGKVTLPLQGGVQQNPSRCLVYKVPSASMSSEEVKQVESGTIQFQFSLSSDGPTEHANGPRVGRRSSRKMPASPSGTPAPAARDLAATQDSPVGPGLSLSQLTASPLSPALQSSSKPPLQPPDSSQSPEGPQLQAESVLESRVSHLEADLSQPASLQGTPAVEHLQELPFTPLHAPIVVGAQTRSSRSQLSRAAMVLLQSSGFPEILDASQQPVEAVNPIDPVRFNPQKEESDCLRGNEIVLQFLAFSRAAQDCPGTPWPQTVYFTFQFYRFPPETTPRLQLVKLDGTGKSGSGSLSHILVPINKDGSFDAGSPGLQLRYMVDPGFLKPGEQRWFAHYLAAQTLQVDVWDGDSLLLIGSAGVQMKHLLRQGRPAVQVSHELEVVATEYEQEMMAVSGDVAGFGSVKPIGVHTVVKGRLHLTLANVGHACEPRARGSNLLPPSRSRVISNDGASFFSGGSLLIPGGPKRKRVVQAQRLADVDSELAAMLLTHTRAGQGPQAAGQEADAVHKRKLERMRLVRLQEAGGDSDSRRISLLAQHSVRAQHSRDLQVIDAYRERTKAESIAGVLSQAITTHHTLYATLGTAEFFEFALKNPHNTQHTVAIEIDSPELSIILDSQEWRYFKEATGLHTPLEEDMFHLRGSLAPQLYLRPRETAHIPLKFQSFSVGPLAPTQAPAEVITEKDAESGPLWKCSAMPTKHAKVLFRVETGQLIAVLCLTVEPQPHVVDQVFRFYHPELTFLKKAIRLPPWHTLPGAPVGMPGEDPPVHVRCSDPNVICEAQNVGPGEPRDVFLKVASGPSPEIKDFFVVIYADRWLAVPVQTWQVCLHSLQRVDVSCVAGQLTRLSLVLRGTQTVRKVRAFTSHPQELKTDPAGVFVLPPHGVQDLHVGVRPRRAGSRFVHLNLVDIDYHQLVASWLVCLSCRQPLISKAFEITMAAGDEKGTNKRITYTNPYPSRRTYRLHSDRPELLRFKEDSFQVAGGETYTIGLRFLPSGSAGQEEILIYINDHEDKNEETFCVKVLYQ
# Biological target: T1, RPGR, wild-type mouse retina (mouse (endogenous in mouse retina))
# Test: co-IP; protein lysates from wt or Rpgr-ko mouse retinas, IP with RPGR antibody, immunoblot with NPHP4 antibody
binder,measurement,value
B1,binding,binds
